Results reported in ChEMBL document CHEMBL3430321, “Simulation of multiple ion channel block provides improved early prediction of compounds' clinical torsadogenic risk” (Cardiovasc Res, 2011).

Biological target: Sodium channel protein type 5 subunit alpha (Homo sapiens, UniProt Q14524)

Q: How did the IC50 turn out when `CN(C)CCOC(c1ccccc1)c1ccccc1` [DIPHENHYDRAMINE] was run?
A: 41 µM
